From the supplement of paper PMC10849652
This is one part of the list.

The chains behind the UniProt entries cited, without tags or fusion partners. Where a name states a change or a piece, a line headed by the entry shows the natural chain unless it says otherwise.
UniProt Q8IXZ2: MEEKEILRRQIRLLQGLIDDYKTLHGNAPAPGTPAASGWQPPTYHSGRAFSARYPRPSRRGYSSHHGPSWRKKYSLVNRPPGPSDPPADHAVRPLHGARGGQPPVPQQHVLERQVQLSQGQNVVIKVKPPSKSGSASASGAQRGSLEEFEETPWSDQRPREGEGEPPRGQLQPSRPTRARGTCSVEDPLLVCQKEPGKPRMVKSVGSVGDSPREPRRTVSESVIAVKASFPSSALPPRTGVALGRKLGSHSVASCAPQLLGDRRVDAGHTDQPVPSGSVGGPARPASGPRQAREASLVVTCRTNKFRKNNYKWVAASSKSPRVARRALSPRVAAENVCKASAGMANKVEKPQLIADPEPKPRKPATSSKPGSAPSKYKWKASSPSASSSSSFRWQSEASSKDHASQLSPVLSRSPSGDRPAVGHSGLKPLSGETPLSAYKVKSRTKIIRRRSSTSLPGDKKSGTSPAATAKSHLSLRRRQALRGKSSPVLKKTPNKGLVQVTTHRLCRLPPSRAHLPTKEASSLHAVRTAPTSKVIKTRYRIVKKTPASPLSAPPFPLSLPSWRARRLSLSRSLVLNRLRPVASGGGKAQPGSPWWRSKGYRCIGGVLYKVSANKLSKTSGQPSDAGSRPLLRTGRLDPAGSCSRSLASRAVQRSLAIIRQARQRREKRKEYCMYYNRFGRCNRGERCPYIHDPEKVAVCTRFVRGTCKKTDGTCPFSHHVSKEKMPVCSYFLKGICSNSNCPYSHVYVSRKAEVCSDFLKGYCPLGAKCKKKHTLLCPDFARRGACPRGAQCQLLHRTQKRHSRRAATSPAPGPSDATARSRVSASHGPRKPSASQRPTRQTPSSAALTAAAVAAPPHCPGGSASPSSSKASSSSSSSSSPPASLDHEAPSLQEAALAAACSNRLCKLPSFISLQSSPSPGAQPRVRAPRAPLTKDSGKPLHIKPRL
UniProt A6NM28: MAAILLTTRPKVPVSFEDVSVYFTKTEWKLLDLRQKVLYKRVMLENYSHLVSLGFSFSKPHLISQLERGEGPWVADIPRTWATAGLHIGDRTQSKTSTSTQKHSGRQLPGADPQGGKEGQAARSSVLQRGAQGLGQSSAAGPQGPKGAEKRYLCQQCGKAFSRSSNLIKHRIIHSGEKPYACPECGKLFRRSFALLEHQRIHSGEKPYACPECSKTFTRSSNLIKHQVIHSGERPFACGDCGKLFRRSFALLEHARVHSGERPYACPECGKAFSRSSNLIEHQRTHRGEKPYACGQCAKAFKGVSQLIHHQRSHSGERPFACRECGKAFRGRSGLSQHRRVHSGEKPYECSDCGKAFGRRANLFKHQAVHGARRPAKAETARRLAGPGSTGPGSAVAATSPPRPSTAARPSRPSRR
UniProt Q5D1E8: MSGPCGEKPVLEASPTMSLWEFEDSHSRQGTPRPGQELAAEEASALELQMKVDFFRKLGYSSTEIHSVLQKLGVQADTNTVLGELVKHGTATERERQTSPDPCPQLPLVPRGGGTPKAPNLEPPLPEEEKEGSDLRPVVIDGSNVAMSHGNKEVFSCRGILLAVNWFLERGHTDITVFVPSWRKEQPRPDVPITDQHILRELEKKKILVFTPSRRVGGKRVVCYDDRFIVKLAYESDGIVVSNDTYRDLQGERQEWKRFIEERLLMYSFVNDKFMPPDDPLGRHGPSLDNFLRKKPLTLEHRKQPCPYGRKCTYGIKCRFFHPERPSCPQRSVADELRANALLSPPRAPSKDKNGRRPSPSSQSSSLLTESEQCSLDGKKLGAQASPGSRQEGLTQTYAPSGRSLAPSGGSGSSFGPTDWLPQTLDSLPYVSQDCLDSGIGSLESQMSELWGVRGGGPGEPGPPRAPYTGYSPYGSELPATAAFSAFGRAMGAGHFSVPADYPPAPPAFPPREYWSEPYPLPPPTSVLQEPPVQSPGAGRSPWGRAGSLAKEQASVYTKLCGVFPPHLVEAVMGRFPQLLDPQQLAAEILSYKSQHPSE
UniProt Q9P243: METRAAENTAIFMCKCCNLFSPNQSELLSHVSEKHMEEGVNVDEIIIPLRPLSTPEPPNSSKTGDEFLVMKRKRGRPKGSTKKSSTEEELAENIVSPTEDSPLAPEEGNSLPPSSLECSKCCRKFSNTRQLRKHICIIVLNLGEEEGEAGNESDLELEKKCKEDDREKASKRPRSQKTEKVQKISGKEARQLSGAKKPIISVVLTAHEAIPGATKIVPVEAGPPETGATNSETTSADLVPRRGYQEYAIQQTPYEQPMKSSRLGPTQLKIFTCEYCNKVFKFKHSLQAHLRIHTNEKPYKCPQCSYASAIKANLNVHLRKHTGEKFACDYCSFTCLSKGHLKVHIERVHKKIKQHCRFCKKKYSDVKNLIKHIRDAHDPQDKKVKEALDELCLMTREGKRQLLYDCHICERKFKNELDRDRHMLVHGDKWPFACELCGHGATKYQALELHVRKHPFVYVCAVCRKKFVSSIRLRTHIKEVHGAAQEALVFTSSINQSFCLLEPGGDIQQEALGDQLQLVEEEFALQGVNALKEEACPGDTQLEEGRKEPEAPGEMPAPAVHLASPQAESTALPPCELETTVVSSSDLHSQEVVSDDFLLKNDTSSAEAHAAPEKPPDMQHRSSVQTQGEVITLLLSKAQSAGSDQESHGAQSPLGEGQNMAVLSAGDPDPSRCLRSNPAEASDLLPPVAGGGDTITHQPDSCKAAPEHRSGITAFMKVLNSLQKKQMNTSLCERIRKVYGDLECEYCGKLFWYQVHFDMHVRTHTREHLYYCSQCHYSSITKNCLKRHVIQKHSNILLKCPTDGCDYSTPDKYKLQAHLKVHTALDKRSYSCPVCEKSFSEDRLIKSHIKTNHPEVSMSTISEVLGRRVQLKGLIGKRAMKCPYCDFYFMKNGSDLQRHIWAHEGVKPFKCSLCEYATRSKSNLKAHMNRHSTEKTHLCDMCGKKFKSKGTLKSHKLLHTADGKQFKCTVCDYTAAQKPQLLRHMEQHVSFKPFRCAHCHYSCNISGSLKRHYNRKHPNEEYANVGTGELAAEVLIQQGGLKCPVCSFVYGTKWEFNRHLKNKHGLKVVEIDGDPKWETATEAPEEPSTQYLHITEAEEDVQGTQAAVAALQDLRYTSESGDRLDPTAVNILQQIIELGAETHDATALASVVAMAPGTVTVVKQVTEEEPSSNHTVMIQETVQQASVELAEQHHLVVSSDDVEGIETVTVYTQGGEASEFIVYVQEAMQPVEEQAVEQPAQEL
UniProt P58557: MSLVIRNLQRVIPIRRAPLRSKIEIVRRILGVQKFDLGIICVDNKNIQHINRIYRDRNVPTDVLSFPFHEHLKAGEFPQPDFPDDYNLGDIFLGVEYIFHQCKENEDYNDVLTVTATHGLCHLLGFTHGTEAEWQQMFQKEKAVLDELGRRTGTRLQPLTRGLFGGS
UniProt O95625: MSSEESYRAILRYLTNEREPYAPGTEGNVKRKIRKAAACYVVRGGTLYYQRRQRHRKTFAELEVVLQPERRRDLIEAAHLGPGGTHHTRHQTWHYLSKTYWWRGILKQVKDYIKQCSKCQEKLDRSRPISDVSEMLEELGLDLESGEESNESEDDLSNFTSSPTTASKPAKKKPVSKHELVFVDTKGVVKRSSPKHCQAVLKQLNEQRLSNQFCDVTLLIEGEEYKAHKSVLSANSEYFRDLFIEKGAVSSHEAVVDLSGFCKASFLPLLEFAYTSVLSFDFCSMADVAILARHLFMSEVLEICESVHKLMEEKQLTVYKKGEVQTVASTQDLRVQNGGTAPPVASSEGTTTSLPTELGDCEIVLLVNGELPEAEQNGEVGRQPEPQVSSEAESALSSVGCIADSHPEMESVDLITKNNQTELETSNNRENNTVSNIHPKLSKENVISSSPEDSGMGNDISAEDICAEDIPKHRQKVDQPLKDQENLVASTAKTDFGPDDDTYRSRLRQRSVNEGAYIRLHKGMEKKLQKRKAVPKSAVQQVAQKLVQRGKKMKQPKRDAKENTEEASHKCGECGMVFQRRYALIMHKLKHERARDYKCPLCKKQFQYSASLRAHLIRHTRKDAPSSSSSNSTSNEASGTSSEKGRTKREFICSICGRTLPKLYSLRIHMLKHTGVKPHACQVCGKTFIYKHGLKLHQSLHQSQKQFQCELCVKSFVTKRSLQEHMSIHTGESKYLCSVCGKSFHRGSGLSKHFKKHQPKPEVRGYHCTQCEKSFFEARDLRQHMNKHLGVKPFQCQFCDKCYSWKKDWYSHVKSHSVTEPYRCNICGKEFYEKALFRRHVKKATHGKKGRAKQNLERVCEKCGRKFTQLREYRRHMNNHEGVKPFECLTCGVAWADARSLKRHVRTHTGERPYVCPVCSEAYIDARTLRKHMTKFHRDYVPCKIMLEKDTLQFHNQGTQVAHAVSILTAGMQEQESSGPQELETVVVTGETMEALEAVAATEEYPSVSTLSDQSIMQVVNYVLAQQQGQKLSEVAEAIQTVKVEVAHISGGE
UniProt P17010: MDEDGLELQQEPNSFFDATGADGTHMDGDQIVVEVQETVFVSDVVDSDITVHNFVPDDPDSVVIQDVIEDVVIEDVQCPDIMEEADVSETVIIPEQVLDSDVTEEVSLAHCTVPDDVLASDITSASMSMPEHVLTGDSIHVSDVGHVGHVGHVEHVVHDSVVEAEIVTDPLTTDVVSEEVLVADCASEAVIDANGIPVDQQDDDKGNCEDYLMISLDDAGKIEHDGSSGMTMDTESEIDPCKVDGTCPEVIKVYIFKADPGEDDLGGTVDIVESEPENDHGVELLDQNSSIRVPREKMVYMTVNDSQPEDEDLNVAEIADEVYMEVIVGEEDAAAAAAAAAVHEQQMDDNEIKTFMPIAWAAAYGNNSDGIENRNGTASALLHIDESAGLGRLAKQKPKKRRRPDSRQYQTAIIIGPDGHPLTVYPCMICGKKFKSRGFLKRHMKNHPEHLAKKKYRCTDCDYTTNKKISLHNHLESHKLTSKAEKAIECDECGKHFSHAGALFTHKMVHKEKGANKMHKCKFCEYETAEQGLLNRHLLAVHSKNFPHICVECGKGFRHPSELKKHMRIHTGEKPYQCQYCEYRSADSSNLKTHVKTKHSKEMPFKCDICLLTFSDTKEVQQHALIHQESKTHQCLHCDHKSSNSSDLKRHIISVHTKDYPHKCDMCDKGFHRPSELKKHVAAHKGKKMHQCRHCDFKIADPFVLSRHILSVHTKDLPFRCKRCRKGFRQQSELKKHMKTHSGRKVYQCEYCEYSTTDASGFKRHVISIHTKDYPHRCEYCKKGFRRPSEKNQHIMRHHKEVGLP
UniProt Q49AG3: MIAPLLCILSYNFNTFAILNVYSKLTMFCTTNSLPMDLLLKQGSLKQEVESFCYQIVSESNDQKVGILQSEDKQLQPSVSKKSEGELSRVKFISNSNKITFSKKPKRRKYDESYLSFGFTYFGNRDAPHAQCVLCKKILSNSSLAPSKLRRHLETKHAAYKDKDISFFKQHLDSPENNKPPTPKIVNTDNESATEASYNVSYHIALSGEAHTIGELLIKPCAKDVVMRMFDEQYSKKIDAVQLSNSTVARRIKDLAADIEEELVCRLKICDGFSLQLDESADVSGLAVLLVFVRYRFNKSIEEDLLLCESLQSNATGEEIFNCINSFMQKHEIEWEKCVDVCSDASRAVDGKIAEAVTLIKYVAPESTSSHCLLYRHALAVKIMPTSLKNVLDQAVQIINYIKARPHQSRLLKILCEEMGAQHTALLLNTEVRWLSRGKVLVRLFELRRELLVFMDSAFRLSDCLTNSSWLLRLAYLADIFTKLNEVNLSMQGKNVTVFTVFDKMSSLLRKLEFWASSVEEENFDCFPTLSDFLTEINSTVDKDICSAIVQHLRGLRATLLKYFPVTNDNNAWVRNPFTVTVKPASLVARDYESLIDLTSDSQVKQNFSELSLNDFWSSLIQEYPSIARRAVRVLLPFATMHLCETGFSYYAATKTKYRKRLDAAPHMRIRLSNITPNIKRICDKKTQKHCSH
UniProt Q9UIJ5: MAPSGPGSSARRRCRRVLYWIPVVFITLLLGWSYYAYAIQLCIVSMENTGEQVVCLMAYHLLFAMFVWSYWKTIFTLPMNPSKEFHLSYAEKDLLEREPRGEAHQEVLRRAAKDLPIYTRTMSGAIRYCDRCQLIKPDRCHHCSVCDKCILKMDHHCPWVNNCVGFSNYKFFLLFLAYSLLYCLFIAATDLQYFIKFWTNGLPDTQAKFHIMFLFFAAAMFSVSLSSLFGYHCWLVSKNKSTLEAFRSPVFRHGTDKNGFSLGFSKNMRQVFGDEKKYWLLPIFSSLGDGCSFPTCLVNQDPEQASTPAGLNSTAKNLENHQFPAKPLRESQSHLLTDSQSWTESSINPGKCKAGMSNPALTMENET
UniProt Q8TBF4: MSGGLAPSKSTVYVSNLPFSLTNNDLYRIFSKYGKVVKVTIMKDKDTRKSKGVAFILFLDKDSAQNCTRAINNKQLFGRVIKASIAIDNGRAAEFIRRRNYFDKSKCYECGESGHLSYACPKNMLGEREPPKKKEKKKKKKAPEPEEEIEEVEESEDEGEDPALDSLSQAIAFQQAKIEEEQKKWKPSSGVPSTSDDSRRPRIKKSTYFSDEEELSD

Experiments:
Experiment in all cases: log2 fold change, soluble protein after heating vs DMSO (PISA); higher = thermal stabilisation; K562 lysate, 10 uM; active = over 0.2 and 3.5 SD of the protein, either way, in both replicates (recomputed)
[1] = compound: CCCS(=O)(=O)Nc1ccc(F)c(C(=O)c2c[nH]c3ncc(-c4ccc(Cl)cc4)cc23)c1F [vemurafenib]
Method in brief: (§1)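 Following dounce homogenisation of K562 pellets in PBS pH 7.4 with 1 mM MgCl2, crude extract at 1 mg/mL protein was incubated for 30 min with 10 μM compound. Aliquots were then heated for 3 min over 48°C-58°C and pooled, NP-40 was added to 0.5% at 4°C, and soluble protein was recovered as the supernatant at 21,000xg for 90 min. Channel-sum-equalised TMTpro 16plex LC-MS/MS quantified this protein. Each value, from duplicates, is a log-two fold change in thermal stability relative to solvent controls.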

[2] = compound: CC(C)(C)Cn1c(N)nc2ccc(-c3[nH]c(C(C)(C)C)nc3-c3ccc(F)cc3)nc21 [ralimetinib]
Method in brief: as §1

[3] = compound: CC(C)(O)CC(=O)NCCn1ccc2ncnc(Nc3ccc(Oc4cccc(C(F)(F)F)c4)c(Cl)c3)c21
Method in brief: as §1

[4] = compound: CC(C)C1=C2N=C(C=C(N2N=C1)NCC3=CC=CC=C3)NCCCCCCN
Method in brief: as §1

[5] = compound: CC1=C(C=C(C=C1)NC(=O)C2=CC(=CC=C2)C(C)(C)C#N)NC3=CC4=C(C=C3)N=CN(C4=O)C
Method in brief: as §1

[6] = compound: CC1=C(C=C(C=C1)NC(=O)C2=CC(=CC=C2)N(C)C)NC(=O)C3=CC=C(C=C3)O
Method in brief: as §1

[7] = compound: CCn1c(C(=O)N(C2CC2)C2CC2)cc2c3c(ncn3C)c(Nc3cc(C)n(C)n3)nc21
Method in brief: as §1

[8] = compound: CCn1cc(-c2ccnc3[nH]c(-c4cccc(CN(C)C)c4)cc23)c(-c2ccc(NC(=O)N(C)C)cc2)n1
Method in brief: as §1

[9] = compound: CN1CCC(CNc2ccc3ncc(-c4cccc(OC(F)(F)F)c4)n3n2)CC1
Method in brief: as §1

[10] = compound: CN1CCN(c2nc(C3=C(c4c[nH]c5ccccc45)C(=O)NC3=O)c3ccccc3n2)CC1 [sotrastaurin]
Method in brief: as §1

[11] = compound: CC(=O)c1cnc2ccc(-c3cc(Cl)c(O)c(Cl)c3)nc2c1N[C@H]1CC[C@H](CN(C)C)CC1
Method in brief: as §1

[12] = compound: CC1=C(C2=C(C=C1)C(=O)C3=CC=CC=C3N2CCCN)C
Method in brief: as §1

[13] = compound: CC1=CC=C(C=C1)SC2=C3C=C(SC3=CN=C2)C(=O)N
Method in brief: as §1

[14] = compound: CCCS(=O)(=O)Nc1ccc(F)c(C(=O)c2c[nH]c3ncc(Cl)cc23)c1F
Method in brief: as §1

[15] = compound: CC[C@@H]1C(=O)N(C)c2cnc(Nc3ccc(C(=O)NC4CCN(C)CC4)cc3OC)nc2N1C1CCCC1
Method in brief: as §1

[16] = compound: CC[C@@H]1C(=O)N(C)c2cnc(Nc3ccc(C(=O)N[C@H]4CC[C@H](N5CCN(CC6CC6)CC5)CC4)cc3OC)nc2N1C(C)C [volasertib]
Method in brief: as §1

[17] = compound: CN1CCN(CCOc2cc(OC3CCOCC3)c3c(Nc4c(Cl)ccc5c4OCO5)ncnc3c2)CC1 [saracatinib]
Method in brief: as §1

[18] = compound: CC1=C(C(CC(=O)N1)C2=CC=C(C=C2)C(F)(F)F)C(=O)NC3=C(C=C4C(=C3)C=NN4)F
Method in brief: as §1

Measured: log2 fold change

ZBED4 (UniProt O75132)
inactive: [1] 0.052

YIPF2 (UniProt Q9BWQ6)
inactive: [2] -0.061 | [3] -0.051 | [4] -0.084 | [5] -0.007 | [6] 0.044 | [7] 0.02 | [8] -0.071 | [9] -0.069 | [10] -0.004

ZBTB43 (UniProt O43298)
inactive: [11] 0.043 | [2] -0.074 | [3] -0.092 | [4] -0.026 | [12] -0.127 | [5] 0.038 | [6] -0.002 | [13] -0.019 | [1] -0.023 | [14] -0.009 | [15] 0.051 | [16] 0.036 | [7] 0 | [17] -0.01 | [10] -0.02

ZC3H3 (UniProt Q8IXZ2)
inactive: [11] -0.063 | [13] -0.033 | [14] -0.221 | [16] 0.062 | [8] 0.117 | [9] -0.152

ZFP92 (UniProt A6NM28)
inactive: [1] 0.166 | [15] 0.066

ZC3H12A (UniProt Q5D1E8)
inactive: [2] 0.004 | [3] -0.04 | [4] -0.043 | [18] -0.231 | [12] -0.235 | [5] -0.051 | [6] 0.069 | [15] 0.143 | [7] -0.003 | [17] 0.156 | [10] 0.009

ZFAT (UniProt Q9P243)
inactive: [4] -0.08 | [18] -0.02 | [15] -0.046

5 neighbouring entries out of the list so far, quoted:
YIPF2 (UniProt Q9BWQ6)
inactive: [2] -0.061 | [3] -0.051 | [4] -0.084 | [5] -0.007 | [6] 0.044 | [7] 0.02 | [8] -0.071 | [9] -0.069 | [10] -0.004

ZBTB43 (UniProt O43298)
inactive: [11] 0.043 | [2] -0.074 | [3] -0.092 | [4] -0.026 | [12] -0.127 | [5] 0.038 | [6] -0.002 | [13] -0.019 | [1] -0.023 | [14] -0.009 | [15] 0.051 | [16] 0.036 | [7] 0 | [17] -0.01 | [10] -0.02

ZC3H3 (UniProt Q8IXZ2)
inactive: [11] -0.063 | [13] -0.033 | [14] -0.221 | [16] 0.062 | [8] 0.117 | [9] -0.152

ZFP92 (UniProt A6NM28)
inactive: [1] 0.166 | [15] 0.066

ZC3H12A (UniProt Q5D1E8)
inactive: [2] 0.004 | [3] -0.04 | [4] -0.043 | [18] -0.231 | [12] -0.235 | [5] -0.051 | [6] 0.069 | [15] 0.143 | [7] -0.003 | [17] 0.156 | [10] 0.009

Next part.

ZDHHC8 isoform 3 (UniProt Q9ULC8)
inactive: [8] -0.187 | [9] 0.111

ZBTB40 (UniProt Q9NUA8)
inactive: [11] 0.035 | [2] 0.096 | [3] -0.012 | [4] 0.057 | [18] 0.081 | [12] -0.042 | [5] 0.009 | [6] -0.007 | [13] -0.044 | [1] 0.06 | [14] -0.076 | [16] 0.029 | [7] -0.014 | [8] -0.127 | [9] 0.095 | [17] -0.017 | [10] -0.012

YBEY (UniProt P58557)
inactive: [4] 0.016 | [12] -0.029 | [1] -0.119 | [15] -0.054 | [17] -0.058

ZBTB11 (UniProt O95625)
inactive: [11] -0.186 | [4] -0.014 | [18] -0.018 | [5] -0.048 | [13] -0.111 | [1] 0.141 | [14] -0.31 | [16] 0.045 | [8] -0.019 | [9] -0.134 | [10] 0.029

ZBTB5 (UniProt O15062)
inactive: [2] -0.005 | [3] 0.026 | [4] -0.008 | [12] 0.057 | [5] 0.026 | [6] 0.045 | [1] 0.109 | [15] 0.063 | [7] 0.004 | [17] -0.006 | [10] 0.066

ZC3H14 isoform 11 (UniProt Q6PJT7)
inactive: [5] 0.016 | [10] 0.177

ZFX isoform 3 (UniProt P17010)
inactive: [11] 0.165 | [2] -0.01 | [3] -0.028 | [12] -0.044 | [5] -0.094 | [6] 0.027 | [13] -0.133 | [14] -0.139 | [16] 0.055 | [7] 0.055 | [17] 0.03 | [10] 0.01

ZBED5 (UniProt Q49AG3)
inactive: [4] 0.063 | [12] -0.02 | [17] -0.029

ZBTB44 (UniProt Q8NCP5)
inactive: [5] 0.023 | [10] 0.182

ZDHHC2 (UniProt Q9UIJ5)
inactive: [11] -0.044 | [2] 0.055 | [3] 0.011 | [4] -0.161 | [5] 0.074 | [6] 0.007 | [13] -0.005 | [14] 0.009 | [15] -0.392 | [16] 0.009 | [7] 0.041 | [8] 0.026 | [9] -0.032 | [10] -0.094

ZCCHC7 (UniProt Q8N3Z6)
inactive: [18] 0.158 | [12] -0.051 | [5] 0.141 | [17] -0.055 | [10] 0.095

ZCRB1 (UniProt Q8TBF4)
inactive: [11] -0.043 | [2] -0.024 | [3] -0.002 | [4] -0.006 | [18] 0.063 | [12] -0.041 | [5] -0.044 | [6] 0.022 | [13] 0.003 | [14] -0.002 | [16] 0.01 | [7] -0.006 | [8] -0.072 | [9] 0.011 | [17] 0.092 | [10] 0.01

ZBED6 (UniProt P86452)
inactive: [11] -0.101 | [2] -0.221 | [3] -0.176 | [4] 0.084 | [12] -0.198 | [6] 0.041 | [13] -0.23 | [14] 0.12 | [16] 0.045 | [7] -0.188 | [17] -0.009

ZCCHC4 (UniProt Q9H5U6)
inactive: [18] 0.039 | [12] 0.059 | [1] 0.136 | [15] -0.226 | [8] -0.146 | [9] 0.225 | [17] -0.087
